In paper doi:10.1101/2024.02.01.578400 one finds binding data, which are given here for two molecules.

Results are given in words; binding and its absence hold for the method and conditions named. For some assays here: In cells and extracts the contact can be indirect. Some binding calls cover weakened binding; strength is not graded here. Sequences can lack the tags named with a protein.

Test [1] deals with ATHB2 (full-length class II HD-ZIP transcription factor), GAL4 fusion (Arabidopsis thaliana) (UniProt Q05466). Briefly: two-hybrid.
For test [2], the target named is ATHB2 fused to eGFP or mCherry, expressed in Nicotiana benthamiana leaves (Arabidopsis thaliana) (UniProt Q05466). Put plainly: FRET or BRET. On the technique in general: Bioluminescence resonance energy transfer reports proximity on the nanometre scale.

B1: ATHB2 (full-length class II HD-ZIP transcription factor), GAL4 fusion (protein, UniProt Q05466 1-284)
chain: MMFEKDDLGLSLGLNFPKKQINLKSNPSVSVTPSSSSFGLFRRSSWNESFTSSVPNSDSSQKETRTFIRGIDVNRPPSTAEYGDEDAGVSSPNSTVSSSTGKRSEREEDTDPQGSRGISDDEDGDNSRKKLRLSKDQSAILEETFKDHSTLNPKQKQALAKQLGLRARQVEVWFQNRRARTKLKQTEVDCEFLRRCCENLTEENRRLQKEVTELRALKLSPQFYMHMSPPTTLTMCPSCEHVSVPPPQPQAATSAHHRSLPVNAWAPATRISHGLTFDALRPRS
On to B1, for which the binding result in test [1] is “binds”.

B2: ATHB2 fused to eGFP or mCherry, expressed in Nicotiana benthamiana leaves (protein, UniProt Q05466 1-284)
chain: MMFEKDDLGLSLGLNFPKKQINLKSNPSVSVTPSSSSFGLFRRSSWNESFTSSVPNSDSSQKETRTFIRGIDVNRPPSTAEYGDEDAGVSSPNSTVSSSTGKRSEREEDTDPQGSRGISDDEDGDNSRKKLRLSKDQSAILEETFKDHSTLNPKQKQALAKQLGLRARQVEVWFQNRRARTKLKQTEVDCEFLRRCCENLTEENRRLQKEVTELRALKLSPQFYMHMSPPTTLTMCPSCEHVSVPPPQPQAATSAHHRSLPVNAWAPATRISHGLTFDALRPRS
Regarding B2, in test [2], the binding result was “binds”.
